Among the data in PMC12201986 are binding values, retold here.

By UniProt entry, the sequences of proteins in these tests, tags left out.
UniProt Q8CFN5: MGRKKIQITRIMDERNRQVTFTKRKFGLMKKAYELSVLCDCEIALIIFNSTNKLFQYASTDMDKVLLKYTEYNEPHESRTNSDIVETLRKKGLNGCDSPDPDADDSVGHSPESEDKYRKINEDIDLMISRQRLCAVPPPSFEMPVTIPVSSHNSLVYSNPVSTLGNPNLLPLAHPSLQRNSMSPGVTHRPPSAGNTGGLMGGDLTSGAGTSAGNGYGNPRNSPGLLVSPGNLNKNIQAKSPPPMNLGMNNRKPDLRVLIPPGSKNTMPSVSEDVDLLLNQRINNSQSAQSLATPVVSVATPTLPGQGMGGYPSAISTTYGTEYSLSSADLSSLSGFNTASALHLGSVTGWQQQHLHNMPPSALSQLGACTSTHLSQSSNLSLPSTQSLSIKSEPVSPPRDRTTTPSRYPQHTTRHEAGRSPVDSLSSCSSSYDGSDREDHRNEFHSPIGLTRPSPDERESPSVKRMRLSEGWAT
UniProt Q6P9Z1: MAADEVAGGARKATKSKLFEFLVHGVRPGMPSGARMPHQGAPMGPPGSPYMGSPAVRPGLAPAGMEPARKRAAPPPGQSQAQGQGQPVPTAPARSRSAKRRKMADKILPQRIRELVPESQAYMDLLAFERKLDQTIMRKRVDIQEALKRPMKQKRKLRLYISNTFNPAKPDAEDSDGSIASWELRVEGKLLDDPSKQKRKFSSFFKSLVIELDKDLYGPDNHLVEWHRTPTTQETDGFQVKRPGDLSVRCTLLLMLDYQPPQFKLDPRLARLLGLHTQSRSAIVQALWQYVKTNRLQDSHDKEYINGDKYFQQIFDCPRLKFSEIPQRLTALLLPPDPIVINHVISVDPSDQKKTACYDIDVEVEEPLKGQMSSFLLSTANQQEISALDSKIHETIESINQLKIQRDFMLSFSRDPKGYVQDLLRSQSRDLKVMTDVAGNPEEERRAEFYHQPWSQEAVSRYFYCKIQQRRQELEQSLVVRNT

For one assay, the target named is Flag/HA-tagged Mef2c (UniProt Q8CFN5). The assay is described as follows: co-IP; HEK293T cells transiently transfected with Myc-tagged Baf60c and Flag/HA-tagged Mef2a or Mef2c; lysate incubated with anti-HA agarose at 4°C overnight, washed five times, immunoblotting. On the technique in general: A western blot detects proteins with antibodies after separation by electrophoresis.

Assay [1] deals with Flag-HA tagged Baf60c (muscle-specific transgene, MCK-Bc mice) (UniProt Q6P9Z1). The assay is described as follows: co-IP; quadriceps muscle lysate of WT and MCK-Bc (Flag-HA tagged Baf60c transgenic) mice; incubated with anti-Flag agarose at 4°C overnight, washed five times, immunoblotting.

No constants are given. Whether binding was seen depends on the method and setting. In cells and extracts the contact can be indirect. Some results given as binding are weak or reduced against the parent protein; the word gives no strength.

For “Myc-tagged Baf60c (from UniProt Q6P9Z1 1-483)”, the binding entry with Flag/HA-tagged Mef2c is given as “binds”.

Turning to “endogenous Mef2c (from UniProt Q8CFN5 1-474)”, the binding result in assay [1] is on record as “binds”.
